Measured values published in patent US20150266968A1 (COMPLIX, published 2015).
No constants are given. Whether binding was seen depends on the method and setting. Where a sequence is shown, tags or fusion partners need not be part of it. Blank lines part the entries; values can stand above or below the binder they belong to.

By UniProt entry, the sequences of proteins in these tests, tags left out. Where a name states a change or a piece, a line headed by the entry shows the natural chain unless it says otherwise. Residues count along the entry.
UniProt Q07817, residues 1-209: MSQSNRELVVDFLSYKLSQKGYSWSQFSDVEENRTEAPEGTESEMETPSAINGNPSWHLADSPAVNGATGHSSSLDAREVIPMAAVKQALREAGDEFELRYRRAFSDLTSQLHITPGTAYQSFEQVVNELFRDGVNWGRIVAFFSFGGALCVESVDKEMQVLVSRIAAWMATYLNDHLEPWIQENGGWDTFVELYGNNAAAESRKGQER
UniProt P10415, residues 1-207: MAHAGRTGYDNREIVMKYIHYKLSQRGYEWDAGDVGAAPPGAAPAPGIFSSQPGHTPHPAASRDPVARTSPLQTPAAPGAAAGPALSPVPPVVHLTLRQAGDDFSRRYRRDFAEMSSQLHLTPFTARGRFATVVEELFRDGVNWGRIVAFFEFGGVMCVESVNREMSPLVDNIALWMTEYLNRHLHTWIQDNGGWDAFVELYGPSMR

Assays:
[1] = target: GST-tagged recombinant human BCL-XL with a C terminal deletion of 24 amino acids (human) (UniProt Q07817); test: condition: 1000 nM (end of the drawn line; last visible marker at about 8 nM); ELISA: Alphabody (500 nM) captured by immobilized anti-V5 antibody, five-fold dilutions of GST-BCL-XL, detection with anti-GST-HRP, OD read at 492 nm and 630 nm
[2] = target: GST-tagged recombinant human BCL-XL with a C terminal deletion of 24 amino acids (human) (UniProt Q07817); test: ELISA; Alphabody (500 nM) captured by anti-V5 antibody, five-fold dilutions of GST-tagged protein, anti-GST-HRP detection
[3] = target: GST-tagged recombinant human BCL-2 isoform alpha (BCL-2a) with a C-terminal deletion of 32 amino acids (human) (UniProt P10415); test: as above
[4] = target: GST-tagged recombinant human BCL-2 isoform alpha (BCL-2a) with a C-terminal deletion of 32 amino acids (human) (UniProt P10415); test: ELISA: Alphabody (500 nM) captured by immobilized anti-V5 antibody, five-fold dilutions of GST-BCL-2a, detection with anti-GST-HRP, OD read at 492 nm and 630 nm

binding [1]: no binding | binding [2]: no binding | binding [3]: no binding | binding [4]: no binding (tested: 8 nM)
B1: Alphabody MB23_hiR-V5 (designed binder)
chain: MSIEQIQKEITTIQEVIAAIQKYIYTMTGGSGGSGGMSIQQIQAAIRRIQRAIRRIQRAIRRMTGSGGGGSGMSIEEIQKQIAAIQEQIVAIYKQIMAMASHHHHHHGKPIPNPLLGLDST
notes: Cationized Alphabody directed against IL-23, with His-tag and V5 tag; Used as control in the BCL-2 family ELISA; also called cationized MB23; control Alphabody MB23-hiR-V5

binding [3]: no binding | binding [4]: no binding
B2: Alphabody AB1_A2aF_hiKR3-V5 (designed binder)
chain: MSIQQIQKQFKRIQKQIKRIEKQIKRMTGGSGGSGGMSIEEITKQIAAIQLRIVGDQVQIYAMTGGSGGGSGGGSGGGSGGSIEEIKKSIRAIQKEIKKIQKKIKKMTPHHHHHHHHHHGKPIPNPLLGLDST
